Measurements: publication PMC7819943, “Rice protein-binding microarrays: a tool to detect cis-acting elements near promoter regions in rice”
This is one part of the list.

The sequences below were run against T1, OsSMF1 (Oryza sativa, UniProt Q6ZLB0 1-436) (assay: protein-binding microarray (RPBM); PBS, 2% BSA, 51.3 ng/ul salmon testes DNA, 50 uM zinc acetate, 200 nM TF, 25 C, 1 h; high values mean tight binding). Details: protein: recombinant; tags: N-terminal polyhistidine and DsRed monomer fusion (pET32a); chain copies: 2; label: CyDye5-dUTP incorporated in the synthesized complementary strand; 3' TTTTT single-stranded linker to array surface; dsDNA, one strand shown.
T1 sequence: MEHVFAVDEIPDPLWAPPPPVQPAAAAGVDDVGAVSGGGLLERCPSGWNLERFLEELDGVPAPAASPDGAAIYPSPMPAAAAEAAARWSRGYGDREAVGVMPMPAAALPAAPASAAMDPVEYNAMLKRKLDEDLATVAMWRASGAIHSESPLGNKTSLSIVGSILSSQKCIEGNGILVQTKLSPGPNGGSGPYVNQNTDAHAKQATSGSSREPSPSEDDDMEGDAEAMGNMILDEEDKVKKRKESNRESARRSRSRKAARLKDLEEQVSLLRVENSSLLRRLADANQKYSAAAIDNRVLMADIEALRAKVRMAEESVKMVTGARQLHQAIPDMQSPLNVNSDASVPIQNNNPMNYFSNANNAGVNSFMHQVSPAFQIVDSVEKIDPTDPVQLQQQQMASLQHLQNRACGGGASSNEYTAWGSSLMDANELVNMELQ
Procedure, shortened: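 The binding signal for each feature is its fluorescence intensity in arbitrary units. An Axon 4000B scanner was used to read a custom Agilent array that had been made double-stranded with Cy5-dUTP primer extension, blocked with 2% BSA, incubated at 25 °C for 1 h with 200 nM protein in PBS, 2% BSA, salmon testes DNA and 50 µM zinc acetate, and washed. The protein was an N-terminal polyhistidine–DsRed transcription factor fusion from E. coli BL21-CodonPlus, purified on Ni–NTA.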

Sequence	binding signal
TTTGTGACTCCACATCACAGCATGCCTCAGCAGCTACCTCCGGAGTCACCTAGTGCAG	4000 fluorescence intensity (a.u.)
AATTTCAGTACTCAGTTCATTAAATTAATTAAAGAAAGGCCGGAGTCACCTAGTGCAG	51100 fluorescence intensity (a.u.)
TTTCTTCTTGTTTCTTAGTCAGCGTCAGTTATCAAGCTATCGGAGTCACCTAGTGCAG	6580 fluorescence intensity (a.u.)
CGCCTTGCCGTTCCTTCCCCTCCTCGTCATCACTAGGGTTCGGAGTCACCTAGTGCAG	8160 fluorescence intensity (a.u.)
GAGATTTTGGTTAAATGTGACACATCTAGTATAATGAATCCGGAGTCACCTAGTGCAG	3730 fluorescence intensity (a.u.)
TGAAAATTTTGGTAGGATAAATAGAAGACCAGCTCCCTCTCGGAGTCACCTAGTGCAG	4220 fluorescence intensity (a.u.)
GGAGCATATTACTCGGTACTATGAATTATGATGACACTTGCGGAGTCACCTAGTGCAG	4220 fluorescence intensity (a.u.)
ATGTGGCACACACGTGGCGTCGCAACCCGGTCGCGTCCAACGGAGTCACCTAGTGCAG	12200 fluorescence intensity (a.u.)
CGCCCCTCCCATCCTCTACACGTACGGTTACACAAATCCACGGAGTCACCTAGTGCAG	3960 fluorescence intensity (a.u.)
GCCGATGCCGGCCTAGCCCTCCGCGTGGCATTCCGTCCCCCGGAGTCACCTAGTGCAG	6450 fluorescence intensity (a.u.)
CGCGCCATCTCCATGTCATCGTCGTCGTCTGTGTCCCCTTCGGAGTCACCTAGTGCAG	7760 fluorescence intensity (a.u.)
ACTGATCAGCTCCTATATTGTACCGTAACAATCCATGTCACGGAGTCACCTAGTGCAG	3570 fluorescence intensity (a.u.)
TTTCTGCGGATTTGCAAACCTTAAACTGCTTGCTCTTGACCGGAGTCACCTAGTGCAG	3400 fluorescence intensity (a.u.)
ATGTCTTTTATCTGTACAATAAGTGTGCCTTATTTTACCACGGAGTCACCTAGTGCAG	3330 fluorescence intensity (a.u.)
ACGTCTGTTTAGATTTGTTATACTGGAATATGTCACATCTCGGAGTCACCTAGTGCAG	32200 fluorescence intensity (a.u.)
TATATATATATATACCCCTGAGACTCAATACAACGTGTCCCGGAGTCACCTAGTGCAG	4300 fluorescence intensity (a.u.)
CCGAGCTCGCCGTCGCCCCGTCACGCCAGCCGCCTCTTCCCGGAGTCACCTAGTGCAG	4260 fluorescence intensity (a.u.)
TTCTCTCGTGTCTCCGCCACCGCATCGTCGGCCGCCTGTCCGGAGTCACCTAGTGCAG	5720 fluorescence intensity (a.u.)
CCCTGTAGAAAGTAAAATGACATGCGGGGTCAGAAGTTTCCGGAGTCACCTAGTGCAG	3910 fluorescence intensity (a.u.)
ACCTGCCCAACCCCAACCCCAACCCTCTCCTCTCCGCCCACGGAGTCACCTAGTGCAG	3710 fluorescence intensity (a.u.)
AAACAGTGCACAAATGCCCATGTAGATGATGATTTATTAACGGAGTCACCTAGTGCAG	35100 fluorescence intensity (a.u.)

In a second layout: results already given
Sequence,binding signal
TTTGTGACTCCACATCACAGCATGCCTCAGCAGCTACCTCCGGAGTCACCTAGTGCAG,4000 fluorescence intensity (a.u.)
TTTCTGCGGATTTGCAAACCTTAAACTGCTTGCTCTTGACCGGAGTCACCTAGTGCAG,3400 fluorescence intensity (a.u.)
ACCTGCCCAACCCCAACCCCAACCCTCTCCTCTCCGCCCACGGAGTCACCTAGTGCAG,3710 fluorescence intensity (a.u.)

The list continues.

Sequence	binding signal
CTCCTCCGCCGCCGCCGCTCCCAGCCTGCACGCCGGCCGCCGGAGTCACCTAGTGCAG	26200 fluorescence intensity (a.u.)
TTGAAGCCACCGCGGGCGACGCTGACGCATGACGCTCCGGCGGAGTCACCTAGTGCAG	7270 fluorescence intensity (a.u.)
GCGGTGCGTCGACTGGCAGAGGAGGCTGACGTCATCGCCACGGAGTCACCTAGTGCAG	19700 fluorescence intensity (a.u.)
ATTTTCTAGACTATGATAATGCTTATGTGTCAATTCATTTCGGAGTCACCTAGTGCAG	5800 fluorescence intensity (a.u.)
CACAAGTCTCCCATGTCGCCGCCGTCTCGGCGACCACCCCCGGAGTCACCTAGTGCAG	4410 fluorescence intensity (a.u.)
TGCAGACTGCATTGTCATGCAGGCCTTACATATAGGGTCACGGAGTCACCTAGTGCAG	3650 fluorescence intensity (a.u.)
CGATGAAGCGAGGCATGAGGTTGACGACGATGAGGGGAGGCGGAGTCACCTAGTGCAG	3230 fluorescence intensity (a.u.)
GCCTAGCCAGGATCGCCGCCGGCGGCGCCGCCGAGTCACACGGAGTCACCTAGTGCAG	33100 fluorescence intensity (a.u.)
TTAAGTAGCTACATCTGCTTCAAGAGAGTCTCCCACTTCTCGGAGTCACCTAGTGCAG	3310 fluorescence intensity (a.u.)
TGCGCCGCCGCCGCCGCCGCCGCTGCGGCGTGCATCCGCCCGGAGTCACCTAGTGCAG	37400 fluorescence intensity (a.u.)
ATATGGTACTCTACCAAGTTAGCTTCACGAGTTGATTCCACGGAGTCACCTAGTGCAG	6570 fluorescence intensity (a.u.)
TGAAACCGATTCGGCACCGATACGCTACGCGCGCACGGCCCGGAGTCACCTAGTGCAG	20600 fluorescence intensity (a.u.)
TACAGGAGCGATAGGCTCCGCGGCGTTCGTCGCCGAAACTCGGAGTCACCTAGTGCAG	27500 fluorescence intensity (a.u.)
CGAGGCTTCCACTCCGCCACCGCCACCGCCACCGCCGCGCCGGAGTCACCTAGTGCAG	4160 fluorescence intensity (a.u.)
TCGAGTGGTGGCAGCCCATATATGACTTGGCCACTTGTCCCGGAGTCACCTAGTGCAG	6500 fluorescence intensity (a.u.)
CCGGTGTCACCGCCCTATCTCTCTCACGCATCCCACGCCGCGGAGTCACCTAGTGCAG	3770 fluorescence intensity (a.u.)
ATCCATATATATATATATATATATATATATATATATATATCGGAGTCACCTAGTGCAG	4260 fluorescence intensity (a.u.)
CTCAACGCTCACGTCGTATCACGTGCCATCCCGCGTCTCCCGGAGTCACCTAGTGCAG	3350 fluorescence intensity (a.u.)
ATACAAACGTGGCATGTTTGCCCTAACTATTATATCAGTACGGAGTCACCTAGTGCAG	5170 fluorescence intensity (a.u.)
TCTCTCACACACACACACACTCTCACTGACTCTGCTGCTGCGGAGTCACCTAGTGCAG	3740 fluorescence intensity (a.u.)
ATAAAAGGGGCCTAAGCTGAACGAGCTTCGCCACATCAGTCGGAGTCACCTAGTGCAG	5040 fluorescence intensity (a.u.)
